Measurements: article PMC8896392
No constants are given. Whether binding was seen depends on the method and setting. Binding seen in cells or lysates may run through a third protein. A yes stands for co-enrichment or nearness to the bait. Other partners may have been found.

Tests used:
Test in all cases: affinity purification with mass spectrometry; Flag-KRAS (WT or mutant) precipitated from 800 µg of transfected Caco-2 lysate with anti-Flag-M2 magnetic beads (KingFisher), 1 h; washes in RIPA buffer with 150 mM and 500 mM NaCl; elution in 0.1 M glycine pH 3.0; timsTOF Pro, MaxQuant LFQ
[1] = target: KRAS G12D (UniProt P01116)
[2] = target: KRAS G12V (UniProt P01116)
[3] = target: KRAS wildtype (UniProt P01116)

Measured: binding

B1: RIN2 (protein, UniProt Q8WYP3 1-895)
chain: MTAWTMGARGLDKRGSFFKLIDTIASEIGELKQEMVRTDVNLENGLEPAETHSMVRHKDGGYSEEEDVKTCARDSGYDSLSNRLSILDRLLHTHPIWLQLSLSEEEAAEVLQAQPPGIFLVHKSTKMQKKVLSLRLPCEFGAPLKEFAIKESTYTFSLEGSGISFADLFRLIAFYCISRDVLPFTLKLPYAISTAKSEAQLEELAQMGLNFWSSPADSKPPNLPPPHRPLSSDGVCPASLRQLCLINGVHSIKTRTPSELECSQTNGALCFINPLFLKVHSQDLSGGLKRPSTRTPNANGTERTRSPPPRPPPPAINSLHTSPRLARTETQTSMPETVNHNKHGNVALPGTKPTPIPPPRLKKQASFLEAEGGAKTLSGGRPGAGPELELGTAGSPGGAPPEAAPGDCTRAPPPSSESRPPCHGGRQRLSDMSISTSSSDSLEFDRSMPLFGYEADTNSSLEDYEGESDQETMAPPIKSKKKRSSSFVLPKLVKSQLQKVSGVFSSFMTPEKRMVRRIAELSRDKCTYFGCLVQDYVSFLQENKECHVSSTDMLQTIRQFMTQVKNYLSQSSELDPPIESLIPEDQIDVVLEKAMHKCILKPLKGHVEAMLKDFHMADGSWKQLKENLQLVRQRNPQELGVFAPTPDFVDVEKIKVKFMTMQKMYSPEKKVMLLLRVCKLIYTVMENNSGRMYGADDFLPVLTYVIAQCDMLELDTEIEYMMELLDPSLLHGEGGYYLTSAYGALSLIKNFQEEQAARLLSSETRDTLRQWHKRRTTNRTIPSVDDFQNYLRVAFQEVNSGCTGKTLLVRPYITTEDVCQICAEKFKVGDPEEYSLFLFVDETWQQLAEDTYPQKIKAELHSRPQPHIFHFVYKRIKNDPYGIIFQNGEEDLTTS
binds: all assays above
